# These are yes or no findings as the source states them, for the method shown. In cells and extracts the contact can be indirect. Some results given as binding are weak or reduced against the parent protein; the word gives no strength.
# By UniProt entry, the sequences of proteins in these tests, tags left out.
# UniProt P31749: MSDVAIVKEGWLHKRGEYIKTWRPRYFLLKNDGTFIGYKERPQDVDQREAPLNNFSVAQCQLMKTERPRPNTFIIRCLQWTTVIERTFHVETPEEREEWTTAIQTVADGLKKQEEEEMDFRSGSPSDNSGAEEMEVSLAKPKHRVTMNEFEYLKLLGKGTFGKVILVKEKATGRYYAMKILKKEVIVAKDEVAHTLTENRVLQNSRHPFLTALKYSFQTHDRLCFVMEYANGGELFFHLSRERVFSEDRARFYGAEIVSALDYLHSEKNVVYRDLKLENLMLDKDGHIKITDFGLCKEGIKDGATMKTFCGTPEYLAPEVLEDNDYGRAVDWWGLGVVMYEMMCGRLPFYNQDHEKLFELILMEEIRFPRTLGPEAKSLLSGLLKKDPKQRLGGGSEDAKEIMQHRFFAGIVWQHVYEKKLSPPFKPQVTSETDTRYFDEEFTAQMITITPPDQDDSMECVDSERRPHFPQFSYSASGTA
# Molecular target: endogenous Akt1 of SW620 cells (human (endogenous in SW620)) (UniProt P31749)
# Assay: pull-down; competition: synthetic FAK-derived peptide (160 μM by the legend, 160mM by the methods) added to GST-FAK-NT1 or GST-FAK beads and cell lysate, two hours at 4°C before overnight Akt1 incubation; loss of Akt1 pull-down read by blot; only the binder purified
row,Binder,binding
1,"EVHWLHVDMGVSSVREKYELAHPPEEWKYELRI (peptide, UniProt Q05397 94-126) [Pep-FAK-NT1-2-2]",binds
2,LAHPPEE [LAHPPEE peptide (wild-type FAK short helix)],binds
3,LAHPSEE [LAHPSEE peptide (mutant FAK short helix)],binds
4,AAHCGEE [AAHCGEE peptide (mutant FAK short helix)],binds

# Reference: article PMC5716713
